# Library screen at single concentrations

Chains of the proteins cited; added tags and fusions are not shown. Residues count along the entry.
UniProt P9WPC5, whole entry: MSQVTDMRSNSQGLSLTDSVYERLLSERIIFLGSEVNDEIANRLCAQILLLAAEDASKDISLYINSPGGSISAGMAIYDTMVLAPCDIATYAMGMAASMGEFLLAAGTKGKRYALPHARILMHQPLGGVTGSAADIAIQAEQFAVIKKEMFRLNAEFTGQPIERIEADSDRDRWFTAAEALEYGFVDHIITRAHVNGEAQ
UniProt P9WPC3, whole entry partner: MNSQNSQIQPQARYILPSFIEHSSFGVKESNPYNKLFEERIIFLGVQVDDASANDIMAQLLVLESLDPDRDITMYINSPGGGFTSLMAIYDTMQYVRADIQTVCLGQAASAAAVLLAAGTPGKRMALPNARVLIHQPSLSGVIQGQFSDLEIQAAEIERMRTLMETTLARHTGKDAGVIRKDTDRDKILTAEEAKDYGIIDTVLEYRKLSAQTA
UniProt I6X8D2, whole entry: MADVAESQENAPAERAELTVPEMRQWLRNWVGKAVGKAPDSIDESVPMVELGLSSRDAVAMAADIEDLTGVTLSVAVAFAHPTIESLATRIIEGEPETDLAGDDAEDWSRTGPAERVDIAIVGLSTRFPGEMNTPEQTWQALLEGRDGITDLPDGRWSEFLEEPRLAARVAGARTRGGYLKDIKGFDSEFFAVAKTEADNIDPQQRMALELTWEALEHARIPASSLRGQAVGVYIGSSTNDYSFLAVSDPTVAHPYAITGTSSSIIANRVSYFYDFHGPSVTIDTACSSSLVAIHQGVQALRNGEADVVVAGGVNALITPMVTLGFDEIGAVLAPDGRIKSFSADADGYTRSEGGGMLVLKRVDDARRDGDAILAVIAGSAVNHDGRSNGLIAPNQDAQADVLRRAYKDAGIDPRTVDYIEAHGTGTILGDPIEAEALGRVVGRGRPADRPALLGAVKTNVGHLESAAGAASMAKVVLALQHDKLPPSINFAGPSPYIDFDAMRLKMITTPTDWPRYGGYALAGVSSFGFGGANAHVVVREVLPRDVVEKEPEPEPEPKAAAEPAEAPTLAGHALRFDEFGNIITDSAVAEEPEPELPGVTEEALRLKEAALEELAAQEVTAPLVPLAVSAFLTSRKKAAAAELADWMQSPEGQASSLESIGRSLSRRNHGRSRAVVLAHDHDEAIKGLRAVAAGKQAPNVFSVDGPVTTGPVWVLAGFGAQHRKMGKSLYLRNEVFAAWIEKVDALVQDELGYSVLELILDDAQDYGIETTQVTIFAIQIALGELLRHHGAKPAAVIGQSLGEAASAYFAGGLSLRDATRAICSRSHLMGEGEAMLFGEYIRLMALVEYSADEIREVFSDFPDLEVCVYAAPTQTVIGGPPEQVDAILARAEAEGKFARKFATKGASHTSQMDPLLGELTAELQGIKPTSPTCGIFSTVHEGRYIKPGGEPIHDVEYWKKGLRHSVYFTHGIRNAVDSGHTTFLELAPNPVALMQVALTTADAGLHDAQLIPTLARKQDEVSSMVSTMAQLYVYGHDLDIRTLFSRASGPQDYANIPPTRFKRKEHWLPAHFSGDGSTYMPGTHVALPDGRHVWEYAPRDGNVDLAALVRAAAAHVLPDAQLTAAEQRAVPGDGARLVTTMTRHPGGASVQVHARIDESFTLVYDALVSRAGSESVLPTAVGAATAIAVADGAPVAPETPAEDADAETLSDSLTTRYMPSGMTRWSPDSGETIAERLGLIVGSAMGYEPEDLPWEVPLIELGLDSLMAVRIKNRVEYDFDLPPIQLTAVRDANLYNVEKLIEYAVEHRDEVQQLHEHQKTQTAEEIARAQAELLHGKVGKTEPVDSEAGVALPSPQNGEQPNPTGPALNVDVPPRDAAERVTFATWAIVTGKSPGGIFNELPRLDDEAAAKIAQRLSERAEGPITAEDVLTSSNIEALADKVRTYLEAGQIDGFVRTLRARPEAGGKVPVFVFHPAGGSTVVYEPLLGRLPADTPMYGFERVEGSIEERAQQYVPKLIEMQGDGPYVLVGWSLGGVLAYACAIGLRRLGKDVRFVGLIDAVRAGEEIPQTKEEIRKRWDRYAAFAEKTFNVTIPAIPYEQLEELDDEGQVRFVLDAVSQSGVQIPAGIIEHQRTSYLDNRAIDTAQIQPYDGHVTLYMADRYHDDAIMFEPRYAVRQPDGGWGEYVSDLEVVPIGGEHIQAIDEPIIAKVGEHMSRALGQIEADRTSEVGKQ
UniProt P9WNZ1, whole entry: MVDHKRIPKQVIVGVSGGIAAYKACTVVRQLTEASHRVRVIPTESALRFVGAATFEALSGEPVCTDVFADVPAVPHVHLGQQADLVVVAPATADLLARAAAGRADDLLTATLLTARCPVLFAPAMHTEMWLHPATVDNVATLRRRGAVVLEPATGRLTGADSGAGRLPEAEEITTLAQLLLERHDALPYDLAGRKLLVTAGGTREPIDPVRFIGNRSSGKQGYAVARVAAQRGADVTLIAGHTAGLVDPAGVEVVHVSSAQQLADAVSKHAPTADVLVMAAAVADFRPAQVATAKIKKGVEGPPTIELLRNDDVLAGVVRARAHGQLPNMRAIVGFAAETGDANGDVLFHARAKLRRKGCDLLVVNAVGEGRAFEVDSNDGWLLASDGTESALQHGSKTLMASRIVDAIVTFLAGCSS
UniProt A4I591, 1-473: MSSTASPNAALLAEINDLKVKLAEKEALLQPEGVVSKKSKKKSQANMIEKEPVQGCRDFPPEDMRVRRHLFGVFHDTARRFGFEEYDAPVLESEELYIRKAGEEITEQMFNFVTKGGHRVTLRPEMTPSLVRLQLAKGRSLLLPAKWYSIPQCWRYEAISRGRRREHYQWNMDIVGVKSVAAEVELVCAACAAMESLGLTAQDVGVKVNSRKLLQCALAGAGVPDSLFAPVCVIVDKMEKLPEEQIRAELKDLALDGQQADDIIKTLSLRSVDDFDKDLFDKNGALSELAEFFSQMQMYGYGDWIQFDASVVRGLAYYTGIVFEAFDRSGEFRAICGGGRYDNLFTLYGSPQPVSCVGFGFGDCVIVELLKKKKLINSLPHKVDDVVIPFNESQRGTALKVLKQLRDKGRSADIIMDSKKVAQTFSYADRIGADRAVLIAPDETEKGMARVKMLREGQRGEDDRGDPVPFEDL
UniProt Q4DA54, 1-478: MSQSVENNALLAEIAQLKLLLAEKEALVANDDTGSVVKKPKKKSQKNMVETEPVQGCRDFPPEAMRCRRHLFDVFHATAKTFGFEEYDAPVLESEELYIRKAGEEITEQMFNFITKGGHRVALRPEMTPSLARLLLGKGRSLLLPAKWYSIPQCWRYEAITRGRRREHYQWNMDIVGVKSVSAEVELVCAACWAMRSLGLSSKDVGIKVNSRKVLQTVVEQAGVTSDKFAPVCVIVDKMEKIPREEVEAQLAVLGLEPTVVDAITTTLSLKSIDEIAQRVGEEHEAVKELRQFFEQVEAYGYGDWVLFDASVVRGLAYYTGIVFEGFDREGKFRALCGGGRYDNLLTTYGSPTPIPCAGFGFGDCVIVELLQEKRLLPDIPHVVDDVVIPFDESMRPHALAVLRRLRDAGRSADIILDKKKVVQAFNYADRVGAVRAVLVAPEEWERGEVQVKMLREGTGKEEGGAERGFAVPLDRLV

ClpP1P2: 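ClpP1P2, Mycobacterium tuberculosis (UniProt P9WPC5 and UniProt P9WPC3). Protease assay of ClpP1P2, read by the AMC dye that it sets free. Concentration: 50 µM. Direction is inferred from only a few compounds that gave an IC50; most scored high, so higher reads as stronger inhibition. Most other retested compounds had strongly negative values. About 69,000 compounds were tested under these conditions; 0.015% (about 10) showed 50% or more at least once.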
Pks13 thioesterase: 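Polyketide synthase Pks13, Mycobacterium tuberculosis (UniProt I6X8D2). Enzyme assay of the thioesterase domain of polyketide synthase 13; the read-out is not stated. Compounds at 30 µM. Higher reads as stronger inhibition (inferred from which compounds were picked for retests). Size under these conditions: about 67,000 compounds, about 300 of them at 50% or above in at least one test.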
CoaBC: 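Enzyme assay of CoaBC with a phosphate dye (Biomol Green) read at 650 nm. Target: Coenzyme A biosynthesis protein CoaBC, Mycobacterium tuberculosis (UniProt P9WNZ1). Tested at 30 µM. Higher reads as stronger inhibition, judged from the few compounds that gave an IC50. Most strong results did not repeat in a second test. About 67,000 compounds were tested under these conditions; 0.06% (about 40) showed 50% or more at least once.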
LiHisRS: 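Enzyme assay of histidyl-tRNA synthetase; the read-out is not stated. Target: Histidine-tRNA ligase, Leishmania infantum (UniProt A4I591). Concentration: 30 µM. Direction is inferred from retests: higher values go with stronger inhibition. The assay is labelled LdHisRS but filed under L. infantum. Of about 69,000 compounds tested this way, about 410 (0.6%) reached 50% or more in at least one test.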
TcHisRS: 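Enzyme assay of histidyl-tRNA synthetase; the read-out is not stated. Target: Histidine-tRNA ligase, Trypanosoma cruzi CL Brener (UniProt Q4DA54). Compounds at 30 µM. Direction is inferred from retests: higher values go with stronger inhibition. About 69,000 compounds were tested under these conditions; 0.045% (about 31) showed 50% or more at least once.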

Values are the deposited “Percent Effect”, in %.
How 0% and 100% were set is not recorded. Most values in the screen are low, and negative values occur.
The compounds are a random part of those screened.

- O=S(=O)(NCC(O)c1ccc2c(c1)CCO2)c1ccccc1F (stereo not drawn) | ClpP1P2: -13.34%; Pks13 thioesterase: -25.45%; CoaBC: 2.043%; LiHisRS: 15.58%; TcHisRS: 0%
- c1ncn(Cc2ccc(CNCc3ccc4c(c3)OCCO4)cc2)n1 | ClpP1P2: -3.661%; Pks13 thioesterase: -3.338%; CoaBC: 0.6075%; LiHisRS: 2.174%; TcHisRS: 1.98%
- O=C(O)Cc1cnc(-c2c(Cl)cccc2Cl)s1 | ClpP1P2: -8.69%; Pks13 thioesterase: -3.226%; CoaBC: -2.651%; LiHisRS: 9.89%; TcHisRS: 1.98%
- Cc1cc(NCCS(C)(=O)=O)nc2cc3c(cc12)CCC3 | ClpP1P2: -5.595%; Pks13 thioesterase: 12.98%; CoaBC: 4.911%; LiHisRS: 4.167%; TcHisRS: 7.182%
- NC(=O)C1CCN(CCc2ccc(NCc3ccsc3)cc2)CC1 | ClpP1P2: -4.51%; Pks13 thioesterase: -26.93%; CoaBC: -10.05%; LiHisRS: 17.46%; TcHisRS: 2.02%
- COCC(=O)N1C[C@H](N(C)Cc2cncnc2)[C@H]2OCCC[C@H]21 | ClpP1P2: 3.577%; Pks13 thioesterase: -6.827%; CoaBC: 5.185%; LiHisRS: 20.91%; TcHisRS: 11.64%
- CN(CCOc1cccc(S(C)(=O)=O)c1)c1ccccc1 | ClpP1P2: -1.475%; Pks13 thioesterase: 2.963%; CoaBC: 7.071%; LiHisRS: 3.191%; TcHisRS: 3.03%
- Cc1cc(C)c(CNC(=O)N2CCCC2c2ccc(F)cc2)c(=O)[nH]1 (stereo not drawn) | ClpP1P2: 6.135%; Pks13 thioesterase: -3.622%; CoaBC: 13.04%; LiHisRS: 19.3%; TcHisRS: 12.32%
- COCC(=O)Nc1nccn1Cc1ccc(Br)cc1 | ClpP1P2: -8.32%; Pks13 thioesterase: -7.778%; CoaBC: -3.2%; LiHisRS: 23.08%; TcHisRS: 1.149%
- Cc1csc(N2CCN(Cc3cnc(C)s3)CC2C)n1 (stereo not drawn) | ClpP1P2: -5.513%; Pks13 thioesterase: -23.29%; CoaBC: -8.742%; LiHisRS: 23.08%; TcHisRS: 2.479%
- Cn1cc(C(=O)N[C@H]2CN(S(C)(=O)=O)[C@@H]3CCCO[C@H]23)cn1 | ClpP1P2: -8.505%; Pks13 thioesterase: -33.16%; CoaBC: 7.492%; LiHisRS: 20%; TcHisRS: 4.902%
- CN1CCCC1c1ccnc(-c2ccccc2)n1 (stereo not drawn) | ClpP1P2: -21.75%; Pks13 thioesterase: 1.148%; CoaBC: -1.425%; LiHisRS: 8.451%; TcHisRS: 6.154%
- Cc1nc(NC(=O)CCOCC(F)(F)F)ccc1Br | ClpP1P2: 3.693%; Pks13 thioesterase: -2.276%; CoaBC: 10.36%; LiHisRS: 21.92%; TcHisRS: 2.105%
- Cc1cc(F)ccc1-n1cc(O)c(C(N)=O)n1 | ClpP1P2: -1.2%; Pks13 thioesterase: -24.72%; CoaBC: 2.663%; LiHisRS: 13.04%; TcHisRS: 9%
- CCNC(=O)[C@@H]1CCCN1C(=O)c1cccc(CCC(C)(C)O)c1 | ClpP1P2: -13.16%; Pks13 thioesterase: -3.569%; CoaBC: 1.01%; LiHisRS: 13.83%; TcHisRS: 6.061%
- CCCN1C(=O)[C@@H]2[C@@H](CCN2C(=O)COC)N(Cc2cccs2)C1=O | ClpP1P2: 7.411%; Pks13 thioesterase: 26.88%; CoaBC: 3.311%; LiHisRS: -6.757%; TcHisRS: 0%
- CC(C)CCC(=O)Nc1ncn(CC(=O)N2CCCCCC2)n1 | ClpP1P2: 2.509%; Pks13 thioesterase: -49.75%; CoaBC: -0.2141%; LiHisRS: 18.97%; TcHisRS: 0.5236%
- CNS(=O)(=O)CCNC(=O)[C@@]12CNC[C@@H]1CN(C1CCCC1)C2 | ClpP1P2: -3.721%; Pks13 thioesterase: -23.19%; CoaBC: 0.6036%; LiHisRS: 7.692%; TcHisRS: 1.685%
- CC(C(=O)N(C)Cc1ccc(Br)o1)n1cccn1 (stereo not drawn) | ClpP1P2: 11.36%; Pks13 thioesterase: -9.137%; CoaBC: -1.86%; LiHisRS: 16.44%; TcHisRS: 3.175%
- Cc1ccc(O)c(-c2cc(NCCO)nc3[nH]ccc23)c1 | ClpP1P2: -11.34%; Pks13 thioesterase: -8.881%; CoaBC: -6.352%; LiHisRS: 4.286%; TcHisRS: 10.64%
- Cc1nc(C)n(C2CCCN(C(=O)CCCNc3ncccn3)C2)n1 (stereo not drawn) | ClpP1P2: 3.839%; Pks13 thioesterase: 2.371%; CoaBC: -6.335%; LiHisRS: 10.53%; TcHisRS: 4.298%
- Fc1cc(CNCCn2cccn2)ccc1-n1cncn1 | ClpP1P2: -16.56%; Pks13 thioesterase: 9.557%; CoaBC: 3.165%; LiHisRS: 3.896%; TcHisRS: 5.419%

The last 2 entries again:

SMILES	ClpP1P2	Pks13 thioesterase	CoaBC	LiHisRS	TcHisRS
Cc1nc(C)n(C2CCCN(C(=O)CCCNc3ncccn3)C2)n1 (stereo not drawn)	3.839%	2.371%	-6.335%	10.53%	4.298%
Fc1cc(CNCCn2cccn2)ccc1-n1cncn1	-16.56%	9.557%	3.165%	3.896%	5.419%

From ChEMBL document CHEMBL3988442, “University of Dundee, Small-Polar-MMV Screening Library” (2021).